Assay results: article PMC5511132
Results are given in words; binding and its absence hold for the method and conditions named. In cells and extracts the contact can be indirect. A yes stands for co-enrichment or nearness to the bait. Other partners may have been found.

B1: Putative postmeiotic segregation increased 2-like protein 1 (protein, UniProt A4D2B8 1-440)
chain: MVTMCGGHRPENFLHQVLTEFGEELAGEGKSEVGGGAPRSYLQVASAECWAAAPAVHVGEPVHAGGLHTERGADPVIGLYLVHRGGACQTPTVGNRQTPTLGIHARPRRRATTSLLTLLLAFGKNAVRCALIGPGSLTSRTRPLTEPLGEKERREVFFPPRPERVEHNVESSRWEPRRRGACGSRGGNFPSPRGGSGVASLERAESSSTEPAKAIKPIDRKSVHQICSGPVVPSLSTAVKELVENSLDAGATNIDLKLKDYGVDLIEVSGNGCGVEEENFEGLTLKHHTSKIQEFADLPQVETFGFRGEALSSLCALSDVTISTCHVSAKVGTRLVFDHYGKIIQKTPYPHPRGMTVSVKQLFSTLPVHHKEFQRNIKKKRACFPFAFCRDCQFPEASPAMLPVQPAELTPRSTPPHPCSLEDNVITVFSSVKNGPGSSR
B2: BTB/POZ domain-containing protein2 (protein, UniProt Q9BX70 1-525)
chain: MAAGGSGGRASCPPGVGVGPGTGGSPGPSANAAATPAPGNAAAAAAAAAAAAAAPGPTPPAPPGPGTDAQAAGAERAEEAAGPGAAALQREAAYNWQASKPTVQERFAFLFNNEVLCDVHFLVGKGLSSQRIPAHRFVLAVGSAVFDAMFNGGMATTSTEIELPDVEPAAFLALLKFLYSDEVQIGPETVMTTLYTAKKYAVPALEAHCVEFLKKNLRADNAFMLLTQARLFDEPQLASLCLENIDKNTADAITAEGFTDIDLDTLVAVLERDTLGIREVRLFNAVVRWSEAECQRQQLQVTPENRRKVLGKALGLIRFPLMTIEEFAAGPAQSGILVDREVVSLFLHFTVNPKPRVEFIDRPRCCLRGKECSINRFQQVESRWGYSGTSDRIRFSVNKRIFVVGFGLYGSIHGPTDYQVNIQIIHTDSNTVLGQNDTGFSCDGSASTFRVMFKEPVEVLPNVNYTACATLKGPDSHYGTKGLRKVTHESPTTGAKTCFTFCYAAGNNNGTSVEDGQIPEVIFYT
B3: DNA-binding protein SMUBP-2 (protein, UniProt P38935 1-993)
chain: MASAAVESFVTKQLDLLELERDAEVEERRSWQENISLKELQSRGVCLLKLQVSSQRTGLYGRLLVTFEPRRYGSAAALPSNSFTSGDIVGLYDAANEGSQLATGILTRVTQKSVTVAFDESHDFQLSLDRENSYRLLKLANDVTYRRLKKALIALKKYHSGPASSLIEVLFGRSAPSPASEIHPLTFFNTCLDTSQKEAVLFALSQKELAIIHGPPGTGKTTTVVEIILQAVKQGLKVLCCAPSNIAVDNLVERLALCKQRILRLGHPARLLESIQQHSLDAVLARSDSAQIVADIRKDIDQVFVKNKKTQDKREKSNFRNEIKLLRKELKEREEAAMLESLTSANVVLATNTGASADGPLKLLPESYFDVVVIDECAQALEASCWIPLLKARKCILAGDHKQLPPTTVSHKAALAGLSLSLMERLAEEYGARVVRTLTVQYRMHQAIMRWASDTMYLGQLTAHSSVARHLLRDLPGVAATEETGVPLLLVDTAGCGLFELEEEDEQSKGNPGEVRLVSLHIQALVDAGVPARDIAVVSPYNLQVDLLRQSLVHRHPELEIKSVDGFQGREKEAVILSFVRSNRKGEVGFLAEDRRINVAVTRARRHVAVICDSRTVNNHAFLKTLVEYFTQHGEVRTAFEYLDDIVPENYSHENSQGSSHAATKPQGPATSTRTGSQRQEGGQEAAAPARQGRKKPAGKSLASEAPSQPSLNGGSPEGVESQDGVDHFRAMIVEFMASKKMQLEFPPSLNSHDRLRVHQIAEEHGLRHDSSGEGKRRFITVSKRAPRPRAALGPPAGTGGPAPLQPVPPTPAQTEQPPREQRGPDQPDLRTLHLERLQRVRSAQGQPASKEQQASGQQKLPEKKKKKAKGHPATDLPTEEDFEALVSAAVKADNTCGFAKCTAGVTTLGQFCQLCSRRYCLSHHLPEIHGCGERARAHARQRISREGVLYAGSGTKNGSLDPAKRAQLQRRLDKKLSELSNQRTSRRKERGT
B4: E3 SUMO-protein ligase NSE2 (protein, UniProt Q96MF7 1-247)
chain: MPGRSSSNSGSTGFISFSGVESALSSLKNFQACINSGMDTASSVALDLVESQTEVSSEYSMDKAMVEFATLDRQLNHYVKAVQSTINHVKEERPEKIPDLKLLVEKKFLALQSKNSDADFQNNEKFVQFKQQLKELKKQCGLQADREADGTEGVDEDIIVTQSQTNFTCPITKEEMKKPVKNKVCGHTYEEDAIVRMIESRQKRKKKAYCPQIGCSHTDIRKSDLIQDEALRRAIENHNKKRHRHSE
B5: HORMA domain-containing protein1 (protein, UniProt Q86X24 1-394)
chain: MATAQLQRTPMSALVFPNKISTEHQSLVLVKRLLAVSVSCITYLRGIFPECAYGTRYLDDLCVKILREDKNCPGSTQLVKWMLGCYDALQKKYLRMVVLAVYTNPEDPQTISECYQFKFKYTNNGPLMDFISKNQSNESSMLSTDTKKASILLIRKIYILMQNLGPLPNDVCLTMKLFYYDEVTPPDYQPPGFKDGDCEGVIFEGEPMYLNVGEVSTPFHIFKVKVTTERERMENIDSTILSPKQIKTPFQKILRDKDVEDEQEHYTSDDLDIETKMEEQEKNPASSELEEPSLVCEEDEIMRSKESPDLSISHSQVEQLVNKTSELDMSESKTRSGKVFQNKMANGNQPVKSSKENRKRSQHESGRIVLHHFDSSSQESVPKRRKFSEPKEHI
B6: Fanconi anemia group A protein (protein, UniProt O15360 1-1455)
chain: MSDSWVPNSASGQDPGGRRRAWAELLAGRVKREKYNPERAQKLKESAVRLLRSHQDLNALLLEVEGPLCKKLSLSKVIDCDSSEAYANHSSSFIGSALQDQASRLGVPVGILSAGMVASSVGQICTAPAETSHPVLLTVEQRKKLSSLLEFAQYLLAHSMFSRLSFCQELWKIQSSLLLEAVWHLHVQGIVSLQELLESHPDMHAVGSWLFRNLCCLCEQMEASCQHADVARAMLSDFVQMFVLRGFQKNSDLRRTVEPEKMPQVTVDVLQRMLIFALDALAAGVQEESSTHKIVRCWFGVFSGHTLGSVISTDPLKRFFSHTLTQILTHSPVLKASDAVQMQREWSFARTHPLLTSLYRRLFVMLSAEELVGHLQEVLETQEVHWQRVLSFVSALVVCFPEAQQLLEDWVARLMAQAFESCQLDSMVTAFLVVRQAALEGPSAFLSYADWFKASFGSTRGYHGCSKKALVFLFTFLSELVPFESPRYLQVHILHPPLVPGKYRSLLTDYISLAKTRLADLKVSIENMGLYEDLSSAGDITEPHSQALQDVEKAIMVFEHTGNIPVTVMEASIFRRPYYVSHFLPALLTPRVLPKVPDSRVAFIESLKRADKIPPSLYSTYCQACSAAEEKPEDAALGVRAEPNSAEEPLGQLTAALGELRASMTDPSQRDVISAQVAVISERLRAVLGHNEDDSSVEISKIQLSINTPRLEPREHMAVDLLLTSFCQNLMAASSVAPPERQGPWAALFVRTMCGRVLPAVLTRLCQLLRHQGPSLSAPHVLGLAALAVHLGESRSALPEVDVGPPAPGAGLPVPALFDSLLTCRTRDSLFFCLKFCTAAISYSLCKFSSQSRDTLCSCLSPGLIKKFQFLMFRLFSEARQPLSEEDVASLSWRPLHLPSADWQRAALSLWTHRTFREVLKEEDVHLTYQDWLHLELEIQPEADALSDTERQDFHQWAIHEHFLPESSASGGCDGDLQAACTILVNALMDFHQSSRSYDHSENSDLVFGGRTGNEDIISRLQEMVADLELQQDLIVPLGHTPSQEHFLFEIFRRRLQALTSGWSVAASLQRQRELLMYKRILLRLPSSVLCGSSFQAEQPITARCEQFFHLVNSEMRNFCSHGGALTQDITAHFFRGLLNACLRSRDPSLMVDFILAKCQTKCPLILTSALVWWPSLEPVLLCRWRRHCQSPLPRELQKLQEGRQFASDFLSPEAASPAPNPDWLSAAALHFAIQQVREENIRKQLKKLDCEREELLVFLFFFSLMGLLSSHLTSNSTTDLPKAFHVCAAILECLEKRKISWLALFQLTESDLRLGRLLLRVAPDQHTRLLPFAFYSLLSYFHEDAAIREEAFLHVAVDMYLKLVQLFVAGDTSTVSPPAGRSLELKGQGNPVELITKARLFLLQLIPRCPKKSFSHVAELLADRGDCDPEVSAALQSRQQAAPDADLSQEPHLF
B7: Quinone oxidoreductase-like protein1 (protein, UniProt O95825 1-349)
chain: MKGLYFQQSSTDEEITFVFQEKEDLPVTEDNFVKLQVKACALSQINTKLLAEMKMKKDLFPVGREIAGIVLDVGSKVSFFQPDDEVVGILPLDSEDPGLCEVVRVHEHYLVHKPEKVTWTEAAGSIRDGVRAYTALHYLSHLSPGKSVLIMDGASAFGTIAIQLAHHRGAKVISTACSLEDKQCLERFRPPIARVIDVSNGKVHVAESCLEETGGLGVDIVLDAGVRLYSKDDEPAVKLQLLPHKHDIITLLGVGGHWVTTEENLQLDPPDSHCLFLKGATLAFLNDEVWNLSNVQQGKYLCILKDVMEKLSTGVFRPQLDEPIPLYEAKVSMEAVQKNQGRKKQVVQF

Biological target: FLAG-tagged wild-type NEK1 (human)
Test: affinity purification with mass spectrometry; NEK1-FLAG (control GFP-FLAG) expressed in HEK293T, cells untreated or treated with 10 ug/mL cisplatin for 24 h; lysis in 50 mM Tris-HCl pH 7.4, 150 mM NaCl, 1 mM EDTA, 1% Triton X-100; lysate incubated overnight with anti-FLAG M2 Affinity Gel; SDS-PAGE, LC-MS/MS; proteome and phosphoproteome analyses; only proteins absent from GFP-FLAG controls

binding	Binder
binds	B1
binds	B2
binds	B3
binds	B4
binds	B5
binds	B6
binds	B7
